The match of structure and compound is tentative.
Molecular target: κ receptor (Cavia porcellus, UniProt P41144)
Conditions: read-out: κ: Ki ± SEM; guinea pig brain preparation, [3H]-U69.593, Tables 1 and 2

Chains of the proteins cited; added tags and fusions are not shown.
UniProt P41144, whole entry: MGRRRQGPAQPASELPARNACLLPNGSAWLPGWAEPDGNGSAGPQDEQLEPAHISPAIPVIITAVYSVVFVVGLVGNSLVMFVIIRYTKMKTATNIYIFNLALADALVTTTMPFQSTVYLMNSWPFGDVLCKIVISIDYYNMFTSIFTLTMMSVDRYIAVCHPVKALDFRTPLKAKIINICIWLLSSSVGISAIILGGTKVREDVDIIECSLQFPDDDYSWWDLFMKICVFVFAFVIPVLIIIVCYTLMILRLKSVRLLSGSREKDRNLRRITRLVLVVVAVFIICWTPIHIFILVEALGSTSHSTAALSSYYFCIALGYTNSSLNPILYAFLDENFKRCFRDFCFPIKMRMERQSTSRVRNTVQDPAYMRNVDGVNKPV

## CN1CCN(C(=O)Cc2ccc(Cl)c(Cl)c2)[C@@H]2[C@H]1CCC[C@@H]2N1CCC(O)C1 (relative stereo)
  Ki: 5.4 nM

Source: US8309725B2 (priority 2007, dated 2012)
